The nature of the assay: qHTS Assay for Lipid Storage Modulators in Drosophila S3 Cells.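 For cell number change: cells counted by Cell Tracker Red CMTPX staining in the red channel.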 As to conditions: BODIPY lipid droplet fluorescence, 18-24 h; for cell number change: measured here: cell count max response, cells fed with added oleic acid. The gist of the method:
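Laser-scanning cytometry quantifies lipid droplet accumulation (500–530 nm total intensity; droplet/cell object ratio) in oleic acid-fed (400 uM added) Drosophila S3 cells treated with a concentration series. 20 uM Triacsin C defined 100% inhibition.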
A general note: qHTS replaces the single test concentration by a dilution series.

Setting [1] is: measured here: cell number channel AC50, cells fed with added oleic acid.
Where [2] appears, read: measured here: lipid fluorescence (Fed channel) AC50, cells fed with added oleic acid.

The list shows a part of the results. Shown are side measurements of this screen, not its main read-out; they come without a call. The list favours compounds with an active or inconclusive main result. Potencies come from curve fits of mixed quality, noted in brackets.

By AC50 is commonly meant the concentration at which the activity in the assay is half-maximal. Low readings indicate activity at low concentration, high ones activity only at high concentration. With `CC(=O)Nc1cc(-c2nn(C)c(=O)c3ccccc23)ccc1N1CCCCC1`, the cell number change was determined as 38.1%. Also, the AC50 under setting [1] is 2.06 µM [rising, full curve].
Regarding `O=C(COC(=O)c1ccc(N2CCCC2=O)cc1)Nc1ccccc1`, the cell number change was 8.06%. For the same molecule, the AC50 under setting [2] is 0.0517 µM [falling, full curve, poor fit].
For `CC(/C=N/NC(=O)Cn1cnc2c1c(=O)n(C)c(=O)n2C)=C\c1ccccc1`, the cell number change is 31.1%. Under setting [1], the half-maximal activity concentration (AC50) was 9.2 µM [rising, partial curve, poor fit]. Under setting [2], the AC50 was 10.3 µM [rising, partial curve, poor fit].
Take `COc1ccc([C@H]2CC(=O)C=C(c3ccccc3)C2)cc1`: the cell number change was -12.2%. In addition, the AC50 under setting [2] is 0.461 µM [rising, full curve, poor fit].
Regarding `CCOC(=O)CC1(NC(=O)c2cc(COc3cccc(OC)c3)on2)CCCCC1`, the cell number change was -27.7%. Also, the concentration at half-maximal activity (AC50) under setting [2] was 1.84 µM [falling, partial curve].
On to `COc1ccc(CN2CCN(Cc3ccc4cc(F)ccc4n3)CC2CCO)c(C)c1C` (stereo unspecified), for which the cell number change is -23.4%. Also, under setting [2], the AC50 was 20.6 µM [rising, single point].
With `Cc1ccc(CCNC(=O)CC2Oc3ccc(C)cc3NC2=O)cc1` (stereo unspecified), the cell number change stood at 8.81%. Further, the concentration at half-maximal activity (AC50) under setting [2] is 13 µM [rising, partial curve, poor fit].
For `COc1ccc(CCNC(=O)COc2ncnc3ccccc23)cc1`, the cell number change is -12.3%. In addition, the AC50 under setting [2] is 8.2 µM [falling, partial curve, poor fit].
As to `Cc1nn(-c2cc(C)c3ccccc3n2)c2c1C1C(C2)C1(C)C` (stereo unspecified), the cell number change was -22.8%. In addition, the AC50 under setting [2] was 0.58 µM [falling, full curve, poor fit].
As for `Cc1cccc(NCCC(=O)c2ccc(Br)cc2)c1`, the cell number change was determined as 107%.
As for `COc1ccc(N2CCN(C(CNC(=O)C(=O)NCc3ccncc3)c3ccco3)CC2)cc1` (stereo unspecified), the cell number change was -58.9%. Further, under setting [1], the AC50 is 1.64 µM [falling, partial curve].
As for `CCN(C(C)=O)c1nc(CCl)cs1`, the cell number change was -25.4%. Moreover, under setting [2], the concentration at half-maximal activity (AC50) was 29.1 µM [falling, single point].
Take `O=C(c1ccccc1)N1CCN(C(=S)NCc2ccco2)CC1`: the cell number change worked out at 45.3%. For the same molecule, the AC50 under setting [1] was 29.1 µM [rising, single point].
Consider `CC1CC(C)CN(C(=O)c2ccc(CSc3nc4ccncc4[nH]3)cc2)C1` (stereo unspecified), for which the cell number change turned out to be 23.5%. Besides, under setting [2], the AC50 is 18.4 µM [rising, single point].
As to `OCCNCc1cc(Br)ccc1OCc1ccc(Cl)cc1Cl`, the cell number change was -54.9%. For the same molecule, under setting [1], the AC50 was 29.1 µM [falling, single point]. Besides, the AC50 under setting [2] is 29.1 µM [falling, single point].
With `CC(CCc1ccccc1)NC(=O)c1ccccc1C(=O)O` (stereo unspecified), the cell number change was -35.5%. Further, the AC50 under setting [1] was 0.00411 µM [falling, full curve, poor fit]. For the same molecule, the AC50 under setting [2] was 29.1 µM [falling, single point].
For the molecule `CCCOc1ccc(C2=CSC3=NCCN23)cc1[N+](=O)[O-]`, the cell number change came to 27.2%. Under setting [2], the AC50 is 13 µM [rising, partial curve].
Take `CCc1cc2c(-c3ccccc3)cc(=O)oc2c(CN2CCOCC2)c1O`: the cell number change is -5.65%. The concentration at half-maximal activity (AC50) under setting [2] was 0.116 µM [rising, full curve, poor fit].
As for `Nc1nc2ccc(C(=O)N3CCCCC3)cc2s1`, the cell number change is -6.41%. The half-maximal activity concentration (AC50) under setting [2] was 6.51 µM [falling, partial curve, poor fit].
As to `COc1ccc(C(=O)C2CCCN(C(=O)C3CCOCC3)C2)cc1OC` (stereo unspecified), the cell number change came to 21.4%. Also, under setting [2], the AC50 is 6.51 µM [falling, single point].
For `CCOC(=O)N1CN(C(=O)OCC)CN(C(=O)OCC)C1`, the cell number change came to 5.62%. Under setting [2], the AC50 is 11.6 µM [rising, partial curve].
As for `CCc1ccc(CN(C)Cc2nc(COc3ccccc3)no2)nc1`, the cell number change is 17.9%. In addition, the AC50 under setting [2] was 0.00461 µM [rising, full curve, poor fit].
Turning to `CCOc1ccc(NC(=O)Cn2nnc(C(=O)NCc3ccc4c(c3)OCO4)c2N)cc1`, the cell number change came to 17.3%. Moreover, the AC50 under setting [2] was 29.1 µM [rising, single point].
As for `N#CCOc1coc(CN2CCN(c3cccc(Cl)c3)CC2)cc1=O`, the cell number change amounted to 11.3%.
On to `COC(=O)c1cc(NC(=O)CN2CCc3cc4c(cc3C2)OCCCO4)cc(C(=O)OC)c1`, for which the cell number change was -35%. Besides, under setting [1], the AC50 was 29.1 µM [falling, single point]. In addition, the AC50 under setting [2] was 18.4 µM [falling, partial curve].
As for `Cc1cccc(N2C(=O)SC(N(C)c3ccccc3)C2=O)c1` (stereo unspecified), the cell number change was -1.43%.
On the same count and under the same terms, the value for `O=C(CC1C(=O)NCCN1C(=O)c1ccc(F)cc1)OCc1ccccc1` (stereo unspecified) was 5.75%.
Turning to `CCCCCn1c(CN2CCN(CCO)CC2)nc2c1c(=O)n(C)c(=O)n2C`, the cell number change is -79.2%. Also, under setting [1], the AC50 is 29.1 µM [falling, single point].
As for `FC(F)(F)c1ccc(Nc2nnnc3ccccc23)cc1`, the cell number change worked out at 24.9%. Also, under setting [2], the AC50 is 0.00461 µM [falling, full curve, poor fit].
For the molecule `COc1cccc(OC)c1OCCOc1ccc(C(=O)c2ccccc2)cc1`, the cell number change was -17.5%. Further, under setting [2], the AC50 is 11.6 µM [rising, partial curve].
As to `Cc1ccccc1NC(=O)C(=Cc1ccc(C(=O)O)cc1)C(=O)Nc1ccccc1C`, under setting [1], the half-maximal activity concentration (AC50) is 5.17 µM [rising, single point].
As for `Cc1nnc(NC(=O)CSc2nc(C3CCCCC3)nc3ccccc23)s1`, the cell number change worked out at 61.1%. The AC50 under setting [1] was 11.6 µM [rising, partial curve]. In addition, the concentration at half-maximal activity (AC50) under setting [2] is 20.6 µM [rising, partial curve].
With `CSc1ncc(Cl)c(C(=O)NCc2ccc3c(c2)OCO3)n1`, the cell number change is -33.2%. Further, under setting [1], the concentration at half-maximal activity (AC50) was 20.6 µM [falling, single point].
As for `COc1cc(-c2c(C#N)c(N)nc(SCc3ccncc3)c2C#N)cc(OC)c1OC`, the cell number change was -23%. In addition, the AC50 under setting [2] was 3.66 µM [rising, single point].
With `CC(C)(C)N=C(NS(=O)(=O)c1cccs1)c1ccccc1`, the cell number change is -5.25%. In addition, the AC50 under setting [2] is 3.26 µM [rising, full curve].
As to `O=C(COc1ccc(Cl)cc1Cl)Nc1ccccn1`, the cell number change was -39.2%. Under setting [1], the AC50 is 9.2 µM [falling, partial curve]. The AC50 under setting [2] is 0.291 µM [falling, single point].
For `COc1cccc(NS(=O)(=O)c2cc3c(cc2C)N(C(C)=O)CCO3)c1`, the cell number change was determined as 17.9%.
`Cc1cc(C)cc(NC(=O)c2cnn(-c3ccccc3)c2C2CCNCC2)c1`: the cell number change is -44.5%. Also, the AC50 under setting [1] was 5.17 µM [falling, partial curve].
With `COCc1[nH]nc2c1C1(CCSCC1)C(C#N)=C(N)O2`, the cell number change was -5.08%. Also, the AC50 under setting [2] was 25.9 µM [falling, partial curve].
For `COc1ccc(OCc2cc(C(=O)N(C)C3CCOCC3)no2)c2ccccc12`, the cell number change is -13%. In addition, the AC50 under setting [1] is 4.61 µM [rising, single point]. Also, the AC50 under setting [2] was 5.17 µM [rising, single point].
For `COc1ccc(NC(=O)C(Cc2ccccc2)NC(=O)c2ccco2)cc1OC` (stereo unspecified), the cell number change is 14.6%. Further, the AC50 under setting [2] was 0.184 µM [rising, full curve, poor fit].
Regarding `O=C(COc1ccccc1F)N1CCc2ccccc2C1`, the cell number change was determined as 13.6%. The concentration at half-maximal activity (AC50) under setting [2] was 0.82 µM [rising, single point].
Take `CC(C)(C)C(=O)Nc1nnc(SCc2ccc(F)cc2)s1`: the cell number change was -14.6%. The AC50 under setting [2] is 0.58 µM [falling, full curve, poor fit].
Turning to `Cc1c(Cl)cccc1NC(=O)Cn1c(CCC(=O)O)ccc1-c1ccc(Cl)cc1`, the cell number change stood at 7.62%. Under setting [2], the AC50 is 29.1 µM [falling, single point].
As to `COC(=O)c1ccc(CN2CCC(CO)(CCOc3ccccc3)CC2)cc1`, the cell number change was -2.05%. In addition, the AC50 under setting [2] was 1.46 µM [rising, partial curve].
Regarding `O=C(Nc1ncc(C(F)(F)F)cc1Cl)C1COc2ccccc2O1` (stereo unspecified), the cell number change is -4.6%. Also, the AC50 under setting [2] is 0.651 µM [falling, single point].
As for `O=C(O)CCC(=O)Nc1ccc(S(=O)(=O)Nc2nccs2)cc1`, the cell number change was -7.08%. In addition, the AC50 under setting [2] was 6.51 µM [falling, single point].
As for `COc1ccc2nc(/C=N/NC(=O)[C@H](C)NC(=O)OC(C)(C)C)ccc2c1`, the cell number change is -40.8%. Moreover, the AC50 under setting [1] is 3.66 µM [falling, full curve, poor fit].
For `COc1ccc(C(=O)NC(=S)NCc2ccccc2)cc1OC`, the cell number change came out at 21%. The AC50 under setting [1] was 2.06 µM [falling, partial curve]. In addition, under setting [2], the AC50 was 3.66 µM [falling, single point].
Take `COc1ccc(S(=O)(=O)CC(=O)Nc2nnc(C(F)(F)F)s2)cc1`: under setting [2], the AC50 was 29.1 µM [rising, single point].
Turning to `O=C(NCCCN1CCOCC1)c1ccccc1-c1ccccc1`, the cell number change was -2.51%.
Turning to `Cc1ccc(NC(=O)CN(C)CC(=O)Nc2ccccc2Oc2ccccc2)cc1`, the cell number change was -17.1%. The AC50 under setting [2] is 0.00461 µM [rising, full curve, poor fit].
Take `O=C(O)c1ccc2c(c1)C(=O)N(CCCCCCCN1C(=O)c3ccc(C(=O)O)cc3C1=O)C2=O`: the cell number change was 27%. Besides, the AC50 under setting [1] is 0.164 µM [rising, full curve, poor fit]. The AC50 under setting [2] is 2.06 µM [rising, full curve].
Turning to `CC(C)CCN(C)c1ccc(/C=N/n2cnnc2)cc1`, under setting [2], the AC50 was 2.91 µM [rising, partial curve].
As to `COC(=O)CCCCCCCCC(O)CN1CCCCC1` (stereo unspecified), the cell number change was -26.2%. Besides, the AC50 under setting [1] was 1.46 µM [falling, full curve, poor fit]. For the same molecule, the AC50 under setting [2] is 3.26 µM [falling, full curve, poor fit].
Take `COCCNc1c(-c2ccc(OC)cc2)nc2ccc(Cl)cn12`: the cell number change is -17.4%. The AC50 under setting [2] was 0.58 µM [falling, single point].
For `Cc1nn(Cc2ccccc2)c(C)c1CCC(=O)O`, the cell number change came out at 9.35%. Under setting [2], the half-maximal activity concentration (AC50) was 0.731 µM [falling, full curve].
As to `Cc1ccc2oc(C(=O)NC3CCS(=O)(=O)C3)c(C)c2c1` (stereo unspecified), the cell number change was -24.3%.
`Cc1ccc2nc3c(c(Nc4cccc(O)c4)c2c1)CCC3`: the cell number change is -72.5%. The AC50 under setting [1] was 16.4 µM [falling, partial curve, poor fit]. The AC50 under setting [2] is 20.6 µM [falling, partial curve].
On to `Cc1ccccc1C(=O)N1CCC(C(=O)NN2C(=O)NC3(CCC(C)CC3)C2=O)CC1` (stereo unspecified), for which the cell number change is -36.4%. Under setting [1], the AC50 was 0.291 µM [falling, full curve].

Source of the values: PubChem BioAssay AID2685 (National Center for Advancing Translational Sciences (NCATS), 2010).
